Assay results published in patent US20040072993A1 (UNIVERSITY OF CONNECTICUT HEALTH CENTER, published 2004).
Results are given in words; binding and its absence hold for the method and conditions named. Some entries that bind do so weakly or less than the wild type.

Protein sequences, listed by entry. Tags and fused reporters are not part of them. Lines headed by an entry give the natural chain unless they say otherwise; changes in a name come on top. Residues count along the entry.
UniProt Q91ZX7: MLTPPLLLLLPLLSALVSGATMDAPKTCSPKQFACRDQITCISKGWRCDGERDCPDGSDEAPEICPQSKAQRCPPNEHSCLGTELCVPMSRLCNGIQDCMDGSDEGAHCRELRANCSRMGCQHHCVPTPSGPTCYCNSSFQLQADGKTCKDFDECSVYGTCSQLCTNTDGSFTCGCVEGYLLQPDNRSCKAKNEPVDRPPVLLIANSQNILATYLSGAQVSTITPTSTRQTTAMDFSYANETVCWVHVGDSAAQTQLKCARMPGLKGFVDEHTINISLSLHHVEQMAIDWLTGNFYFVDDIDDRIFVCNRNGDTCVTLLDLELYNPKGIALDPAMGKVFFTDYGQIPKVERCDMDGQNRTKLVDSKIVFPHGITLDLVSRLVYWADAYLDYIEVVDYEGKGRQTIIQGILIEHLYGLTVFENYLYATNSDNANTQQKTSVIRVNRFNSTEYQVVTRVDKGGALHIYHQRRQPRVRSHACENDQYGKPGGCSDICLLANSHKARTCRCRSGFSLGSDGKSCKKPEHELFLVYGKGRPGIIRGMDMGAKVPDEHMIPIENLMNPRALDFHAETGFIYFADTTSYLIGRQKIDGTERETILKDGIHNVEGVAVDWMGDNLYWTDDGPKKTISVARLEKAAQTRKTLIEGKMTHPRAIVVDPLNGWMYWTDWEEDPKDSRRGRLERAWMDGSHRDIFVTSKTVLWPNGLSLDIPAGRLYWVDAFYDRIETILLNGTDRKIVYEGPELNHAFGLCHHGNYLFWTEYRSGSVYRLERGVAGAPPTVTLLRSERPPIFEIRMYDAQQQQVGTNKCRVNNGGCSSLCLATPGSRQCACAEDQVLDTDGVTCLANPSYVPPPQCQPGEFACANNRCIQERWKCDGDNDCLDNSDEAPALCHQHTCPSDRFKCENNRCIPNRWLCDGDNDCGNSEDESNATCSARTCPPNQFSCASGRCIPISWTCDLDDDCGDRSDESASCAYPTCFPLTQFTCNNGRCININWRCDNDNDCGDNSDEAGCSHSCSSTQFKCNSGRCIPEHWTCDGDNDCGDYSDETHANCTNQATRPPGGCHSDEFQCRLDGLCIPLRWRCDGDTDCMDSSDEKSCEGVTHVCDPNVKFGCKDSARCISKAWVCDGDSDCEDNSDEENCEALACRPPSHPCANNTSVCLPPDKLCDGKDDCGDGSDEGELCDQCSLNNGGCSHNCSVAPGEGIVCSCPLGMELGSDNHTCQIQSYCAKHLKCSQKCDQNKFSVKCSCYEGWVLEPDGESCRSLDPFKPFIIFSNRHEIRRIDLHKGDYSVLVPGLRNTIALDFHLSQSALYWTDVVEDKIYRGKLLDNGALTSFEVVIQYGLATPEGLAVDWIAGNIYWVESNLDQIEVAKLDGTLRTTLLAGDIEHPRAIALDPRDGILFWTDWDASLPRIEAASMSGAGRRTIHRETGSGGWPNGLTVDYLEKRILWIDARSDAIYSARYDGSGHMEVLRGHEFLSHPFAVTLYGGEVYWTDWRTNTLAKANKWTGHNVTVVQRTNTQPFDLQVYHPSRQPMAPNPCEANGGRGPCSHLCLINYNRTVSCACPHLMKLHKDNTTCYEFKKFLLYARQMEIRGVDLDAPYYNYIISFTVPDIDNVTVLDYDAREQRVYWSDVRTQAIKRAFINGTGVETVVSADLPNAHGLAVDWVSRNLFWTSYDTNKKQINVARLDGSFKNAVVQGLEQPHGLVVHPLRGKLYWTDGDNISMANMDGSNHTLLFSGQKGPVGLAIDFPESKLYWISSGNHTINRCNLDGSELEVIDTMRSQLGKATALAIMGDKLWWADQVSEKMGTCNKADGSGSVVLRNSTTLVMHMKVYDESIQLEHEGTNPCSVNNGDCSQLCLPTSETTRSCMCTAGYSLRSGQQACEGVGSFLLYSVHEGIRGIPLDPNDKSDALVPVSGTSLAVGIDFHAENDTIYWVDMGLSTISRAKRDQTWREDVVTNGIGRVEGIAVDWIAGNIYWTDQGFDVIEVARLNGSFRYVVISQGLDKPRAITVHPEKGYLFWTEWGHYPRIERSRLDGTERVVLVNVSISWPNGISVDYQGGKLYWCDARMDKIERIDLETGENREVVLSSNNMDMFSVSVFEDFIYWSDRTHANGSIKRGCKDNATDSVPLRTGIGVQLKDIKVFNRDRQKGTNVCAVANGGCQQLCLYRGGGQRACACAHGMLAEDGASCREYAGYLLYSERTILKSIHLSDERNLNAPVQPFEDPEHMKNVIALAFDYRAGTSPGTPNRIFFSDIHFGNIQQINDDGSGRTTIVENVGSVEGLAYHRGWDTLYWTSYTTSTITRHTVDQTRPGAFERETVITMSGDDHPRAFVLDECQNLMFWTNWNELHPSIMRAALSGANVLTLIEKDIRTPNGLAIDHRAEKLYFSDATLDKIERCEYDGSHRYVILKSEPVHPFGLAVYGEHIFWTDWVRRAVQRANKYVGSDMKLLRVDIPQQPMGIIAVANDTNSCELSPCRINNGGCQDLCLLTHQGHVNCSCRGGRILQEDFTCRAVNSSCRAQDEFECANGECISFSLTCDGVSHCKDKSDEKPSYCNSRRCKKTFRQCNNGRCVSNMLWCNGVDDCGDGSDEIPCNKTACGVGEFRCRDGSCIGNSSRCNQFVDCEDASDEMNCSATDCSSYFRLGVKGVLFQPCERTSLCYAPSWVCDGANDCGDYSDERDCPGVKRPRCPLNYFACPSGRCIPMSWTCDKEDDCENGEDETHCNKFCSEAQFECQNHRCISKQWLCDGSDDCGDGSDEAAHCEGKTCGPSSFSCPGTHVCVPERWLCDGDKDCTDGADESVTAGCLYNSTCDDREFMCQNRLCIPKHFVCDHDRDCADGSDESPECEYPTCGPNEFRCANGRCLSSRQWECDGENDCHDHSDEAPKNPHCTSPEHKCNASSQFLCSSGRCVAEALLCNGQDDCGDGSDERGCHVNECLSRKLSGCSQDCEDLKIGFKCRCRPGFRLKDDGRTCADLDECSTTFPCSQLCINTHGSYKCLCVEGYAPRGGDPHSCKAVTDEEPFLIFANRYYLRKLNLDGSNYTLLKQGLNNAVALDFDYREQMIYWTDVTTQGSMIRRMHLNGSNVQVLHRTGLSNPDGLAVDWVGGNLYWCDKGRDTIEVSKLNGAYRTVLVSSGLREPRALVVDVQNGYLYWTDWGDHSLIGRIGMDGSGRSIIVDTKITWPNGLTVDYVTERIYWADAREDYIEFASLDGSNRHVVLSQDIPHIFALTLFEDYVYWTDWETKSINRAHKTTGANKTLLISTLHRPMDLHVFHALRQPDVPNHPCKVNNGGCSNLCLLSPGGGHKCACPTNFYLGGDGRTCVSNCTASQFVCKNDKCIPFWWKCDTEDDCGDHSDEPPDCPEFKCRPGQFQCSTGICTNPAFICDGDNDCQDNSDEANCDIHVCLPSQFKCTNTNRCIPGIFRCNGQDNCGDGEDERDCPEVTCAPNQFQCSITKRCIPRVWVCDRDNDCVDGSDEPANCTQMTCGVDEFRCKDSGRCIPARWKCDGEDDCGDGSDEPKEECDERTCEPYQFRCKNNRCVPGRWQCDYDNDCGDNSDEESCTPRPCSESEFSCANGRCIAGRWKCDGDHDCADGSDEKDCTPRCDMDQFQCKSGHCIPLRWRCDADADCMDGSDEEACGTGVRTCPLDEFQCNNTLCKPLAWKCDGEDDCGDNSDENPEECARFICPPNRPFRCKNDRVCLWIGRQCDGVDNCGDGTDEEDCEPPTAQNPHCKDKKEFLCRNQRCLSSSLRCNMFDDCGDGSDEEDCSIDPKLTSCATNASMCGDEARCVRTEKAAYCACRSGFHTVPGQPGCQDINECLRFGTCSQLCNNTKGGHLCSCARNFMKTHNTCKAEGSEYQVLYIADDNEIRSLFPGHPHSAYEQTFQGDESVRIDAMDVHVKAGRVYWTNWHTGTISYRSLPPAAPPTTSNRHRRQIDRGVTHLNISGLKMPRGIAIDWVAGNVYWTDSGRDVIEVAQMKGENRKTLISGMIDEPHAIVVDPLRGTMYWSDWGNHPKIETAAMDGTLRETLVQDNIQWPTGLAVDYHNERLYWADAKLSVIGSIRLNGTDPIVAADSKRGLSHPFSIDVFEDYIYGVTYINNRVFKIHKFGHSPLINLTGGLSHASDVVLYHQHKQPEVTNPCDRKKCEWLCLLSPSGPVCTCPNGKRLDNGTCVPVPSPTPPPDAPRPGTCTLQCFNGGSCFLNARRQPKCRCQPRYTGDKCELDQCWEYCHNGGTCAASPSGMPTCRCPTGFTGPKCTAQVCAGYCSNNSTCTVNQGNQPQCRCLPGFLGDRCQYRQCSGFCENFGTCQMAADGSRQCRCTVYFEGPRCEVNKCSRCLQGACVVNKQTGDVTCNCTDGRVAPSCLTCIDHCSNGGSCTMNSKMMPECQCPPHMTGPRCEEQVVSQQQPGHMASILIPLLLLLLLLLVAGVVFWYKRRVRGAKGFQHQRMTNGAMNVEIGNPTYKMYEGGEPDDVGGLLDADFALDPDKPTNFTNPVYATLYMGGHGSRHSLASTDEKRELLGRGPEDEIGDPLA
UniProt P14211, residues 18-416: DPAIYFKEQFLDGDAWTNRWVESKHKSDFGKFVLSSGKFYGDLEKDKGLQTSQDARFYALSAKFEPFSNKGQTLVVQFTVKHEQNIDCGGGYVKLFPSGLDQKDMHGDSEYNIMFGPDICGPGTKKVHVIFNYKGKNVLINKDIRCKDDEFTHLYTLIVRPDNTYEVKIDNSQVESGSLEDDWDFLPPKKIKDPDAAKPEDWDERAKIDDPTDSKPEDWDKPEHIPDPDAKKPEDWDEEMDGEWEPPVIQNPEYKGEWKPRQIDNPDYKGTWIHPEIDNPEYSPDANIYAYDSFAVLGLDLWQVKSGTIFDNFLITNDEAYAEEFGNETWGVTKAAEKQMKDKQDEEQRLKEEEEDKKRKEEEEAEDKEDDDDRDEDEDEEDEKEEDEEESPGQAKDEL

Assays:
[1] = biological target: T1, mouse alpha (2) macroglobulin receptor (mouse, UniProt Q91ZX7 20-4545); assay: summary of the re-presentation inhibition experiments
[2] = biological target: T1, mouse alpha (2) macroglobulin receptor; assay: flow cytometry, FITC-labelled HSP on mouse peritoneal macrophages, bone marrow-derived dendritic cells and RAW264.7 cells
[3] = biological target: T1, mouse alpha (2) macroglobulin receptor; assay: summary of the affinity column, cross-linking and cell staining experiments
[4] = biological target: T1, mouse alpha (2) macroglobulin receptor; assay: confocal microscopy, FITC-labelled protein on CD11c+ cells
[5] = biological target: T1, mouse alpha (2) macroglobulin receptor; assay: confocal microscopy of RAW264.7 cells with FITC-labelled gp96

| binding [1] | binding [2] | binding [3] | binding [4] | binding [5] | Molecule |
| --- | --- | --- | --- | --- | --- |
| binds | – | – | – | – | calreticulin (from UniProt P14211 18-416) (ligand) |
| – | binds | binds | binds | binds | heat shock protein gp96 (ligand, UniProt P08113 22-802, looked up) DDEVDVDGTVEEDLGKSREGSRTDDEVVQREEEAIQLDGLNASQIRELREKSEKFAFQAEVNRMMKLIINSLYKNKEIFLRELISNASDALDKIRLISLTDENALAGNEELTVKIKCDKEKNLLHVTDTGVGMTREELVKNLGTIAKSGTSEFLNKMTEAQEDGQSTSELIGQFGVGFYSAFLVADKVIVTSKHNNDTQHIWESDSNEFSVIADPRGNTLGRGTTITLVLKEEASDYLELDTIKNLVRKYSQFINFPIYVWSSKTETVEEPLEEDEAAKEEKEESDDEAAVEEEEEEKKPKTKKVEKTVWDWELMNDIKPIWQRPSKEVEEDEYKAFYKSFSKESDDPMAYIHFTAEGEVTFKSILFVPTSAPRGLFDEYGSKKSDYIKLYVRRVFITDDFHDMMPKYLNFVKGVVDSDDLPLNVSRETLQQHKLLKVIRKKLVRKTLDMIKKIADEKYNDTFWKEFGTNIKLGVIEDHSNRTRLAKLLRFQSSHHSTDITSLDQYVERMKEKQDKIYFMAGSSRKEAESSPFVERLLKKGYEVIYLTEPVDEYCIQALPEFDGKRFQNVAKEGVKFDESEKTKESREATEKEFEPLLNWMKDKALKDKIEKAVVSQRLTESPCALVASQYGWSGNMERIMKAQAYQTGKDISTNYYASQKKTFEINPRHPLIRDMLRRIKEDEDDKTVMDLAVVLFETATLRSGYLLPDTKAYGDRIERMLRLSLNIDPEAQVEEEPEEEPEDTSEDAEDSEQDEGEEMDAGTEEEEEETEKESTEKDEL |
